Experiment [1] deals with BRD9 bromodomain (Flag-BRD9 P133-K239; Swiss Prot Q9H8M2) (Homo sapiens, UniProt Q9H8M2). The experiment in a line: BRD9 Bromodomain TR-FRET Competition Binding Assay. Particulars: read-out: Bromodomain TR-FRET BRD9 IC50; competition with biotinylated BRD9 ligand; 90 minutes at room temperature; tested form: formic acid. How it is done: Procedure: His-Flag-BRD9 (P133-K239; Swiss Prot Q9H8M2; SEQ ID NO:1 mgsshhhhhhenlyfq/gdykddddkgslevlfqg/[…] […]) was cloned, expressed, purified, and then treated with TEV protease. Cleaved His tag was removed by purification. The binding of a biotinylated small molecule ligand of BRD9 was assessed via the LANCE® TR-FRET platform (PerkinElmer), and the compounds were assayed for inhibitory activity against this interaction.
Results: A mixture of biotinylated-ligand and SureLight™ Allophycocyanin-Streptavidin (APC-SA, PerkinElmer AD0201) in 50 mM HEPES (pH 7.4), 50 mM NaCl, 1 mM TCEP (pH 7), 0.01% (v/v) Tween-20, 0.01% (w/v) bovine serum albumin was added to a white 384-well PerkinElmer Proxiplate Plus plate. DMSO or 3-fold serially diluted compounds were then added to the Proxiplate followed by addition of Flag-BRD9. After a 10-minute incubation at room temperature, Eu-W1024 anti-FLAG (PerkinElmer, AD0273) was added. The final reaction mixture that contained 3.75 nM biotinylated ligand, 3 nM Flag-BRD9, 7.5 nM SureLight™ Allophycocyanin-Streptavidin, and 0.2 nM Eu-W1024 anti-FLAG was incubated at room temperature for 90 minutes.
The plates were then read on a PerkinElmer Envision plate reader to determine the ratio of emission at 665 nm over 615 nm. […]
(In general: In TR-FRET formats the signal depends on donor and acceptor labels being close together.)

For experiment [2], the target named is Nanoluciferase-BRD9 fusion protein (3×FLAG-NLuc-BRD9) in SYO-1 cells (Homo sapiens, UniProt Q9H8M2). The experiment in a line: SYO1 BRD9 NanoLuc Degradation Assay. Particulars: read-out: SYO1 BRD9-NanoLuc degradation IC50; 6 hours; SYO-1 cells expressing 3×FLAG-NLuc-BRD9; top dose 1 μM; tested form: formic acid.

Molecules are shown by their SMILES. The structures given here were assigned with low confidence; some may be wrong.

One may read the IC50 as the point on the concentration scale where inhibition reaches its midpoint.

Consider `CNc1cc2c(=O)n(C)cc(-c3cc(OC)c(CN4CCC5(CC4)CN(C(=O)CCCCOc4ccc6c(c4)C(=O)N(C4CCC(=O)NC4=O)C6=O)CCO5)c(OC)c3)c2cn1` (centres unmarked), for which the IC50 in experiment [1] and in experiment [2] was below 10 nM in each case.

Source of the values: patent US12391686B2, “Compounds and uses thereof” (Foghorn Therapeutics Inc., priority 2019, dated 2025).
